This is one part of the list.
Tests used:
Experiment in all cases: glycan array binding signal (z-score within array); higher = stronger binding
Conditions in all cases: glycan notation: IUPAC condensed, linker removed
[1] = biological target: Fuc(a1-2)Gal(b1-4)GlcNAc(b1-3)Gal(b1-4)GlcNAc(b1-3)Gal(b1-4)GlcNAc
In short: (§1)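 Glycan array data were curated from 3228 arrays in the Consortium for Functional Glycomics database and kept only where the protein sequence was available. Glycan names were converted to IUPAC-condensed notation, and columns mapping to the same glycan were averaged. The binding signal is a within-array Z-score, averaged across arrays of the same protein sequence at different concentrations or buffers and across linkers. Negative Z-scores can be read as non-binding.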

[2] = biological target: Fuc(a1-2)Gal(b1-4)GlcNAc(b1-3)GalNAc
In short: as §1

[3] = biological target: Fuc(a1-2)Gal(b1-4)GlcNAc(b1-3)[Fuc(a1-2)Gal(b1-4)GlcNAc(b1-6)]GalNAc
In short: as §1

[4] = biological target: Fuc(a1-2)Gal(b1-4)GlcNAc(b1-3)[Fuc(a1-3)[Gal(b1-4)]GlcNAc(b1-6)]Gal(b1-4)Glc
In short: as §1

[5] = biological target: Fuc(a1-2)Gal(b1-4)GlcNAc(b1-6)GalNAc
In short: as §1

[6] = biological target: Fuc(a1-2)Gal(b1-4)GlcNAc6S
In short: as §1

[7] = biological target: Fuc(a1-2)Gal(b1-4)[Fuc(a1-3)]GlcNAc
In short: as §1

[8] = biological target: Fuc(a1-2)Gal(b1-4)[Fuc(a1-3)]GlcNAc(b1-2)Man(a1-3)[Fuc(a1-2)Gal(b1-4)[Fuc(a1-3)]GlcNAc(b1-2)Man(a1-6)]Man(b1-4)GlcNAc(b1-4)[Fuc(a1-6)]GlcNAc
In short: as §1

[9] = biological target: Fuc(a1-2)Gal(b1-4)[Fuc(a1-3)]GlcNAc(b1-2)[Fuc(a1-2)Gal(b1-4)[Fuc(a1-3)]GlcNAc(b1-4)]Man(a1-3)[Fuc(a1-2)Gal(b1-4)[Fuc(a1-3)]GlcNAc(b1-2)Man(a1-6)]Man(b1-4)GlcNAc(b1-4)GlcNAc
In short: as §1

[10] = biological target: Fuc(a1-2)Gal(b1-4)[Fuc(a1-3)]GlcNAc(b1-3)Gal(b1-4)[Fuc(a1-3)]GlcNAc
In short: as §1

[11] = biological target: Fuc(a1-2)Gal(b1-4)[Fuc(a1-3)]GlcNAc(b1-3)Gal(b1-4)[Fuc(a1-3)]GlcNAc(b1-3)Gal(b1-4)[Fuc(a1-3)]GlcNAc
In short: as §1

[12] = biological target: Fuc(a1-2)Gal(b1-4)[Fuc(a1-3)]GlcNAc(b1-3)GalNAc
In short: as §1

[13] = biological target: Fuc(a1-2)Gal(b1-4)[Fuc(a1-3)]GlcNAc(b1-3)[Neu5Ac(a2-6)Gal(b1-4)GlcNAc(b1-6)]Gal(b1-4)Glc
In short: as §1

[14] = biological target: Fuc(a1-2)Gal3S(b1-4)GlcNAc
In short: as §1

[15] = biological target: Fuc(a1-2)Gal6S(b1-3)GlcNAc
In short: as §1

[16] = biological target: Fuc(a1-2)Gal6S(b1-3)GlcNAc6S
In short: as §1

Fuc(a1-2)Gal6S(b1-4)Glc = biological target: Fuc(a1-2)Gal6S(b1-4)Glc
In short: as §1

[17] = biological target: Fuc(a1-2)Gal6S(b1-4)Glc6S
In short: as §1

Fuc(a1-2)[Gal(a1-3)]Gal = biological target: Fuc(a1-2)[Gal(a1-3)]Gal
In short: as §1

[18] = biological target: Fuc(a1-2)[Gal(a1-3)]Gal(b1-3)GalNAc
In short: as §1

[19] = biological target: Fuc(a1-2)[Gal(a1-3)]Gal(b1-3)GalNAc(b1-3)Gal(a1-4)Gal(b1-4)Glc
In short: as §1

[20] = biological target: Fuc(a1-2)[Gal(a1-3)]Gal(b1-3)GlcNAc
In short: as §1

[21] = biological target: Fuc(a1-2)[Gal(a1-3)]Gal(b1-3)GlcNAc(b1-2)Man(a1-3)[Fuc(a1-2)[Gal(a1-3)]Gal(b1-3)GlcNAc(b1-2)Man(a1-6)]Man(b1-4)GlcNAc(b1-4)GlcNAc
In short: as §1

[22] = biological target: Fuc(a1-2)[Gal(a1-3)]Gal(b1-3)GlcNAc(b1-2)Man(a1-3)[Fuc(a1-2)[Gal(a1-3)]Gal(b1-3)GlcNAc(b1-2)Man(a1-6)]Man(b1-4)GlcNAc(b1-4)[Fuc(a1-6)]GlcNAc
In short: as §1

[23] = biological target: Fuc(a1-2)[Gal(a1-3)]Gal(b1-3)GlcNAc(b1-3)GalNAc
In short: as §1

[24] = biological target: Fuc(a1-2)[Gal(a1-3)]Gal(b1-3)GlcNAc(b1-6)GalNAc
In short: as §1

[25] = biological target: Fuc(a1-2)[Gal(a1-3)]Gal(b1-4)Glc
In short: as §1

[26] = biological target: Fuc(a1-2)[Gal(a1-3)]Gal(b1-4)GlcNAc
In short: as §1

[27] = biological target: Fuc(a1-2)[Gal(a1-3)]Gal(b1-4)GlcNAc(b1-2)Man
In short: as §1

[28] = biological target: Fuc(a1-2)[Gal(a1-3)]Gal(b1-4)GlcNAc(b1-2)Man(a1-3)[Fuc(a1-2)[Gal(a1-3)]Gal(b1-4)GlcNAc(b1-2)Man(a1-6)]Man(b1-4)GlcNAc(b1-4)GlcNAc
In short: as §1

B1: PX9961W-pdi-543-27-543 (Parabacteroides distasonis) (protein)
chain: EGNATTTSYFLNDQQAIDAIDGLYERFHQEGCYGRELFWEQGAACDIVWGRTRGYNSLATLAYTGDESPLRDVFSRMYSTMSRANWIIQELVKKEKGTTLTAVEKRSLGEAYFSRGWAHYLIAYRYGTDKQGVPFVRYEDFPDDYDNSIPPQQATVMDNYKLIIEDMDKAIAYLPIFESYDADNRGRAHQAAAVAFKAKTYAYWATWDATQWNNVIEMVNQLENNYNRDLAPTFAELFSSDLKDYWNAEYLWTIPSIGGALPGGTEFPGIILENKGWGKYNGWGQMKPSYDIYEEMAKDGKGNDRLVRSILEYNQEFPFFGETRKFWSTSDLEAGFMINKYMDAFKYSDPVGEGAVSANGDWPTVRVNFPIIRFAEMLLFRAEAYLMTGQADKATADINRIRLRSNLTPLTGTATMKDLYHERRCELAFEFTDHLFDLKRWNRSSNADIKTLADKELNAHPRIRRYEDRANPESAFTIIGYEDYTNKNAYQAHMMVFPYPSEEITKSNGQLKQNEGY
glycan array binding signal (z-score) [1]: -1.31
glycan array binding signal (z-score) [2]: 0.382
glycan array binding signal (z-score) [3]: -1
glycan array binding signal (z-score) [4]: -0.163
glycan array binding signal (z-score) [5]: -0.257
glycan array binding signal (z-score) [6]: -0.554
glycan array binding signal (z-score) [7]: -0.287
glycan array binding signal (z-score) [8]: 1.66
glycan array binding signal (z-score) [9]: 0.295
glycan array binding signal (z-score) [10]: 0.041
glycan array binding signal (z-score) [11]: 0.317
glycan array binding signal (z-score) [12]: 0.942
glycan array binding signal (z-score) [13]: -0.745
glycan array binding signal (z-score) [14]: -1
glycan array binding signal (z-score) [15]: -0.032
glycan array binding signal (z-score) [16]: 1.04
glycan array binding signal (z-score) (Fuc(a1-2)Gal6S(b1-4)Glc): -0.779
glycan array binding signal (z-score) [17]: -0.138
glycan array binding signal (z-score) (Fuc(a1-2)[Gal(a1-3)]Gal): 0.005
glycan array binding signal (z-score) [18]: -1.22
glycan array binding signal (z-score) [19]: -0.488
glycan array binding signal (z-score) [20]: -0.146
glycan array binding signal (z-score) [21]: -0.55
glycan array binding signal (z-score) [22]: -0.897
glycan array binding signal (z-score) [23]: -0.199
glycan array binding signal (z-score) [24]: 0.085
glycan array binding signal (z-score) [25]: 0.924
glycan array binding signal (z-score) [26]: -0.405
glycan array binding signal (z-score) [27]: -0.316
glycan array binding signal (z-score) [28]: -0.929

— the supplement of paper PMC8728848
